Data as given in PubChem BioAssay AID1159578 (Peter MacCallum Cancer Centre, 2015)
The deposit covers about 18,000 reagents; shown is a random part of them. About 1,030 of all reagents (5.7%) were called active. 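Inactive calls also include pools with fewer than 3300 nuclei, whose migration was not assessed.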 Raw values are not corrected between plates.

- Purpose: 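Genome-wide hunt for genes controlling movement of lymphatic endothelial cells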 (primary screen)
- Cell system: human lymphatic endothelial cells
- Knock-down reagent: siRNA pool against human genes, 40 nM
- Time to read-out: 48 h after transfection
- Detection: 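Cells stained with dye and imaged after a scratch; covered wound area and nuclei counted, duplicates averaged, migration set against mock wells and turned into a robust z-score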
- Direction: migration robust z-score: higher = faster migration into the scratch; migration relative to mock: higher = more scratch area covered than mock; nuclei per well: higher = more cells in the well
- Call rule: 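Migration changed when robust z exceeds 2 or falls below -2 and mean nuclei number is at least 3300; otherwise not called changed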
- Calls: active = migration changed; inactive = no migration change, or too few cells

Target gene	migration robust z-score	migration class with cell-count check	migration relative to mock	nuclei per well, duplicate mean	outcome
ZBTB17 (zinc finger and BTB domain containing 17)	0.03	migration z between -2 and 2; enough cells	0.81	4532	inactive
CNOT6L (CCR4-NOT transcription complex subunit 6 like)	0.46	migration z between -2 and 2; enough cells	0.9	5172	inactive
DHX8 (DEAH-box helicase 8)	-0.44	migration z between -2 and 2; enough cells	0.72	5960	inactive
CNTRL (centriolin)	1.22	migration z between -2 and 2; enough cells	1.04	7148	inactive
NUCB1 (nucleobindin 1)	-2.27	migration z below -2; enough cells	0.3	4702	active
FAM124B (family with sequence similarity 124 member B)	-0.02	migration z between -2 and 2; enough cells	0.88	6268	inactive
OSTN (osteocrin)	-0.64	migration z between -2 and 2; enough cells	0.72	5890	inactive
THRA (thyroid hormone receptor alpha)	0.34	migration z between -2 and 2; enough cells	0.87	5762	inactive
CYP26C1 (cytochrome P450 family 26 subfamily C member 1)	-1.84	migration z between -2 and 2; enough cells	0.41	5094	inactive
ANAPC5 (anaphase promoting complex subunit 5)	0.36	migration z between -2 and 2; enough cells	0.88	6528	inactive
CACHD1 (cache domain containing 1)	0.64	migration z between -2 and 2; enough cells	1.05	6519	inactive
OXT (oxytocin/neurophysin I prepropeptide)	0.08	migration z between -2 and 2; enough cells	0.9	5701	inactive
KRT16 (keratin 16)	1.08	migration z between -2 and 2; enough cells	1.16	6337	inactive
KATNAL2 (katanin catalytic subunit A1 like 2)	-0.68	migration z between -2 and 2; enough cells	0.71	7764	inactive
GRHL3 (grainyhead like transcription factor 3)	1.22	migration z between -2 and 2; enough cells	1.2	5746	inactive
TRIM16L (tripartite motif containing 16 like (pseudogene))	1.6	migration z between -2 and 2; enough cells	1.3	5706	inactive
HTR1D (5-hydroxytryptamine receptor 1D)	-0.91	migration z between -2 and 2; enough cells	0.63	6674	inactive
PRG2 (proteoglycan 2, pro eosinophil major basic protein)	0.13	migration z between -2 and 2; enough cells	0.83	5014	inactive
ODAD2 (outer dynein arm docking complex subunit 2)	2.13	migration z above 2; enough cells	1.44	6518	active
PSMC3IP (PSMC3 interacting protein)	-0.24	migration z between -2 and 2; enough cells	0.82	7038	inactive
CPNE9 (copine family member 9)	-0.08	migration z between -2 and 2; enough cells	0.86	5721	inactive
CRYBB2 (crystallin beta B2)	1.41	migration z between -2 and 2; enough cells	1.25	5814	inactive
KANK3 (KN motif and ankyrin repeat domains 3)	-0.26	migration z between -2 and 2; enough cells	0.82	6633	inactive

Copied from above for reference:
Target gene	migration robust z-score	migration class with cell-count check	migration relative to mock	nuclei per well, duplicate mean	outcome
CACHD1 (cache domain containing 1)	0.64	migration z between -2 and 2; enough cells	1.05	6519	inactive
OXT (oxytocin/neurophysin I prepropeptide)	0.08	migration z between -2 and 2; enough cells	0.9	5701	inactive
KRT16 (keratin 16)	1.08	migration z between -2 and 2; enough cells	1.16	6337	inactive
